# Data as given in PubChem BioAssay AID493246 (Drosophila RNAi Screening Center, 2011)
# Aim: 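Genome-wide search for dsRNAs that reduce cell number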 (primary screen)
# Cells: Drosophila Kc and S2R+ cells
# Knock-down reagent: long dsRNA against Drosophila genes
# Measured: 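Raw, unnormalised count of remaining cells in each well; per-plate z-scores of cell number underlie the calls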
# Reading the numbers: Kc cell number and S2R+ cell number: higher = more cells remaining
# Call rule: 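Counted as a hit if cell number falls by a z-score of at least 3 within its plate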
# The deposit covers about 21,000 reagents; this is a random part of those that have a named target and a result. Of all reagents, 429 (2%) were called active. 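Values are raw and not normalised between plates; calls rest on per-plate z-scores that were not deposited.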 A number with no mark means an inactive call. Names joined by + are all predicted targets of the reagent. Not stated in the record: the amount of reagent, the time to read-out.
Gene,amplicon,"Kc cell number, rep 1","Kc cell number, rep 2","S2R+ cell number, rep 1","S2R+ cell number, rep 2"
Liprin-alpha,DRSC02132,1.19e6,1.33e6,7.41e5,6.58e5
PNPase,DRSC14304,5.13e5,,8.18e5,
CG16888,DRSC02541,1.60e6,1.62e6,1.32e6,1.45e6
CG4328,DRSC10410,1.11e6 (active),1.12e6,7.08e5,8.45e5
Paris,DRSC00451,1.15e6,1.41e6,3.91e5,2.26e5
atms,DRSC12310,1.29e6,1.31e6,1.32e6,1.28e6
Orp8,DRSC15110,1.33e6,1.28e6,9.65e5,1.13e6
Orp8,DRSC15712,1.55e6,1.66e6,1.16e6,1.22e6
CG34282,DRSC16298,1.14e6,1.23e6,1.09e6,1.15e6
wde,DRSC05955,1.38e6,1.39e6,1.12e6,1.13e6
mrva,DRSC11009,1.35e6,1.41e6,1.04e6,1.16e6
CG8046,DRSC07059,1.07e6,1.49e6,1.04e6,1.05e6
y,DRSC18853,1.59e6,1.58e6,9.79e5,1.18e6
Ir75b,DRSC10189,1.28e6,1.33e6,1.23e6,1.32e6
pHCl-1,DRSC09401,1.36e6,1.57e6,1.15e6,1.24e6
pHCl-1,DRSC09991,1.35e6,1.59e6,1.37e6,1.45e6
pHCl-1,DRSC10589,1.30e6,1.49e6,1.38e6,1.48e6
CG10920,DRSC17765,1.57e6,1.56e6,1.16e6,1.28e6
mbl,DRSC05657,1.45e6,1.37e6,9.92e5,1.11e6
mbl,DRSC06449,1.25e6,1.26e6,6.26e5,6.71e5
mbl,DRSC07651,1.44e6,1.56e6,7.44e5,8.60e5
Fen1,DRSC07415,1.61e6,1.61e6,1.17e6,1.28e6
mars,DRSC06656,1.39e6,1.46e6,9.67e5,1.10e6
dgt5,DRSC07280,1.45e6,1.48e6,1.09e6,1.14e6
TwdlS,DRSC14737,1.51e6,1.59e6,1.01e6,1.16e6
CG9861,DRSC04576,1.45e6,1.55e6,1.17e6,1.16e6
CCT7,DRSC16410,1.42e6,1.53e6,1.25e6,1.30e6
CG42671,DRSC10321,1.26e6,1.31e6,1.27e6,1.30e6
Pgant7,DRSC19991,1.51e6,1.53e6,1.12e6,1.26e6
CG15332,DRSC18015,1.56e6,1.52e6,1.01e6,1.10e6
CG15927,DRSC19742,1.53e6,1.40e6,1.11e6,1.21e6

Records listed so far called active, once more:
Gene,amplicon,"Kc cell number, rep 1","Kc cell number, rep 2","S2R+ cell number, rep 1","S2R+ cell number, rep 2"
CG4328,DRSC10410,1.11e6 (active),1.12e6,7.08e5,8.45e5

More reagents follow.
Gene,amplicon,"Kc cell number, rep 1","Kc cell number, rep 2","S2R+ cell number, rep 1","S2R+ cell number, rep 2"
chk,DRSC04994,1.25e6,1.35e6,1.14e6,1.14e6
CG14627,DRSC18630,1.47e6,1.49e6,1.08e6,1.18e6
dbe,DRSC00811,1.46e6,1.46e6,9.78e5,1.09e6
CG10098,DRSC12509,1.61e6,1.62e6,1.33e6,1.45e6
CG17159 + CG17162,DRSC20899,1.57e6,1.61e6,1.11e6,1.20e6
CG17159 + CG17162,DRSC20900,1.56e6,1.58e6,1.13e6,1.29e6
CG9436,DRSC05005,1.49e6,1.66e6,1.07e6,1.09e6
CG42615,DRSC05121,1.41e6,1.49e6,9.63e5,1.10e6
homer,DRSC03547,1.21e6,1.31e6,7.17e5,5.50e5
CG5399,DRSC15791,1.26e6,1.35e6,1.15e6,1.24e6
Gp93,DRSC15827,5.15e5,,8.48e5,
Jhbp1,DRSC12167,1.81e6,1.82e6,1.36e6,1.31e6
TfIIFbeta,DRSC16884,1.42e6,1.55e6,1.24e6,1.35e6
CG11703,DRSC14356,1.54e6,1.63e6,1.07e6,1.14e6
Wnt2,DRSC05160,1.43e6,1.43e6,9.43e5,1.01e6
Wnt2,DRSC07574,1.57e6,1.62e6,1.26e6,1.39e6
CG12376,DRSC06144,1.51e6,1.49e6,1.22e6,1.30e6
CG31249,DRSC16248,1.47e6,1.33e6,9.56e5,1.06e6
barr,DRSC03488,1.33e6,1.44e6,1.17e6,2.71e5
Actn,DRSC17724,5.73e5,,8.05e5,
AnxB11,DRSC19331,6.65e5,,9.25e5,
yl,DRSC20387,1.52e6,1.51e6,1.03e6,1.09e6
EMC3,DRSC02989,1.45e6,1.56e6,1.27e6,1.39e6
CG3927,DRSC04433,1.60e6,1.69e6,1.26e6,1.39e6
CG17684,DRSC07724,5.62e5,,7.65e5,
CG17684,DRSC21166,1.45e6,1.48e6,1.04e6,1.09e6
RpL23A,DRSC08694,1.09e6,1.14e6,7.19e5,7.86e5
CG4563,DRSC04474,1.49e6,1.54e6,1.29e6,1.36e6
